From patent US20200299375A1
These are yes or no findings as the source states them, for the method shown.

B1: 17-22-B03-sc02 (scFv)
scFv: MDIQMTQSPSSLSASVGDRVTIKCQASQSISSYLAWYQQKPGKAPKLLIYKASTLASGVPSRFSGSGSGTEFTLTISDLEPADFATYYCQCTYYEPSYVFRAFGGGTKLTVLGGGGGSGGGGSGGGGSGGGGSEVQLVESGGGLVQPGGSLRLSCKASGIDFSAGYDMCWVRQAPGKGLEWIACIDSRREESDYASWAKGRFTISKDSSKNTVYLQMNSLRAEDTAVYYCARGGYGGDGVDGAFDPWGQGTLVTVSS
B2: 17-22-B03-sc08 (scFv)
scFv: MDIQMTQSPSSLSASVGDRVTITCQASQSISSYLAWYQQKPGKAPKLLIYKASTLASGVPSRFSGSGSGTDFTLTISSLQPEDFATYYCQCTYYEPSYVFRAFGGGTKLTVLGGGGGSGGGGSGGGGSGGGGSEVQLVESGGGLVQPGGSLRLSCKASGIDFSAGYDMCWVRQAPGKGLEWIACIDSRREESDYASWAKGRFTISKDSSKNTVYLQMNSLRAEDTAVYYCARGGYGGDGVDGAFDPWGQGTLVTVSS
B3: 17-22-B03-sc12 (scFv)
scFv: MDIQMTQSPSSLSASVGDRVTITCQASQSISSYLAWYQQKPGKAPKLLIYKASTLASGVPSRFSGSGSGTDFTLTISSLQPEDFATYYCQSTYYEPSYVFRAFGGGTKLTVLGGGGGSGGGGSGGGGSGGGGSEVQLVESGGGLVQPGGSLRLSCKASGIDFSAGYDMCWVRQAPGKGLEWIACIDSRREESDYASWAKGRFTISKDSSKNTVYLQMNSLRAEDTAVYYCARGGYGGDGVDGAFDPWGQGTLVTVSS

Each binder was assayed against T1, recombinant human TNFβ (human) (UniProt P01374) (assay: competition ELISA, coated scFv, biotinylated TNFα, unlabeled TNFβ as competitor).
T1 sequence (looked up): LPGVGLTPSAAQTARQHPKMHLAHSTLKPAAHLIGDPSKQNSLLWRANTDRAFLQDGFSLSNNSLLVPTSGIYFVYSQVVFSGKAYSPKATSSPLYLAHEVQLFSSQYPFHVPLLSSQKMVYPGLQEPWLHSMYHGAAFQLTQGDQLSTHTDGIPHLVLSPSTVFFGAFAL

binding, no binding (tested: 1250 µg/mL):
B1, B2, B3
